Source: patent US20210400977A1, “META-DIAMIDE COMPOUNDS FOR CONTROLLING INVERTEBRATE PESTS” (FMC Corporation, priority 2018, published 2021)
Some of these results come from one statement about several compounds together.

Experiments:
Type in all cases: in vivo
[1] = test system: diamondback moth (Plutella xylostella (L.)); experiment: Test A: control of diamondback moth, foliar spray on mustard plant; conditions: assessed after 6 days, value is the feeding damage limit
[2] = test system: fall armyworm (Spodoptera frugiperda (J. E. Smith)); experiment: Test B: control of fall armyworm, foliar spray on corn (maize) plant; conditions: assessed after 6 days, value is the feeding damage limit
[3] = test system: Western Flower Thrips (Frankliniellla occidentalis (Pergande)); experiment: Test H: control of Western Flower Thrips through contact and/or systemic means; conditions: assessed after 6 days, value is the plant damage limit

SMILES	control efficacy (40% or less feeding damage and/or 100% mortality) ([1]; sprayed at 50 ppm)	control efficacy (40% or less feeding damage and/or 100% mortality) ([1]; sprayed at 250 ppm)	control efficacy (40% or less feeding damage and/or 100% mortality) ([2]; sprayed at 50 ppm)	control efficacy (40% or less feeding damage and/or 100% mortality) ([2]; sprayed at 250 ppm)	control efficacy (30% or less plant damage and/or 100% mortality) ([3]; sprayed at 50 ppm)	control efficacy (30% or less plant damage and/or 100% mortality) ([3]; sprayed at 250 ppm)
O=C(Nc1ccc(Cl)c(CNC(=O)C(F)(F)F)c1)C1C(c2ccc(F)c(Cl)c2)C1(Cl)Cl (stereo not shown) [Compound 19, 2,2-dichloro-3-(3-chloro-4-fluorophenyl)-N-[4-chloro-3-[[(2,2,2-trifluoroacetyl)amino]methyl]phenyl]cyclopropanecarboxamide]	≤ 40%	≤ 40%	≤ 40%	≤ 40%	–	–
CC(=O)N(C)Cc1cc(NC(=O)C2C(c3cc(Cl)cc(Cl)c3)C2(F)F)ccc1Cl (stereo not shown) [Compound 31]	–	≤ 40%	–	–	–	–
O=C(NCc1cc(NC(=O)C2C(c3ccc(F)c(C(F)(F)F)c3)C2(Cl)Cl)ccc1Cl)C1CC1 (stereo not shown) [Compound 39, 2,2-dichloro-N-[4-chloro-3-[[(cyclopropylcarbonyl)amino]methyl]phenyl]-3-[4-fluoro-3-(trifluoromethyl)phenyl]cyclopropanecarboxamide]	≤ 40%	≤ 40%	≤ 40%	≤ 40%	–	–
CC(=O)NCc1cc(NC(=O)C2C(c3cc(Cl)cc(Cl)c3)C2(F)F)ccc1Cl (stereo not shown) [Compound 47]	≤ 40%	≤ 40%	≤ 40%	≤ 40%	–	–
O=C(NCc1cc(NC(=O)C2C(c3cc(Cl)cc(Cl)c3)C2(F)F)ccc1Cl)C1CC1 (stereo not shown) [Compound 48]	≤ 40%	≤ 40%	≤ 40%	–	–	–
CCC(=O)NCc1cc(NC(=O)C2C(c3cc(Cl)cc(Cl)c3)C2(Cl)Cl)ccc1F (stereo not shown) [Compound 55, 2,2-dichloro-3-(3,5-dichlorophenyl)-N-[4-fluoro-3-[(propanoylamino)methyl]phenyl]cyclopropane-1-carboxamide]	–	≤ 40%	≤ 40%	≤ 40%	–	–
O=C(NCc1cc(NC(=O)C2C(c3cc(Cl)cc(Cl)c3)C2(Cl)Cl)ccc1Cl)C1CC1 (stereo not shown) [Compound 62, 2,2-dichloro-N-[4-chloro-3-[(cyclopropanecarbonylamino)methyl]phenyl]-3-(3,5-dichlorophenyl)cyclopropane-1-carboxamide]	–	≤ 40%	≤ 40%	≤ 40%	≤ 30%	≤ 30%
O=C(CC(F)(F)F)NCc1cc(NC(=O)C2C(c3ccc(Cl)c(Cl)c3)C2(Cl)Cl)ccc1F (stereo not shown) [Compound 79, 2,2-dichloro-3-(3,4-dichlorophenyl)-N-[4-fluoro-3-[[(3,3,3-trifluoro-1-oxopropyl)amino]methyl]phenyl]cyclopropanecarboxa-mide]	≤ 40%	–	≤ 40%	–	–	–
CCC(=O)NC(C)c1cc(NC(=O)C2C(c3cc(Cl)cc(Cl)c3)C2(Cl)Cl)ccc1Cl (stereo not shown) [Compound 86]	≤ 40%	–	≤ 40%	–	–	–
CC(NC(=O)C1CC1)c1cc(NC(=O)C2C(c3cc(Cl)cc(Cl)c3)C2(Cl)Cl)ccc1Cl (stereo not shown) [Compound 87]	≤ 40%	–	≤ 40%	–	–	–
O=C(NCCc1cc(NC(=O)C2C(c3cc(Cl)cc(Cl)c3)C2(Cl)Cl)ccc1F)C1CC1 (stereo not shown) [Compound 88]	≤ 40%	–	–	–	–	–
CC(=O)NCc1cc(Cl)cc(NC(=O)C2C(c3cc(Cl)cc(Cl)c3)C2(Cl)Cl)c1 (stereo not shown) [Compound 122]	–	≤ 40%	≤ 40%	≤ 40%	–	–
O=C(NCc1cc(Cl)cc(NC(=O)C2C(c3cc(Cl)cc(Cl)c3)C2(Cl)Cl)c1)C1CC1 (stereo not shown) [Compound 123]	–	≤ 40%	≤ 40%	≤ 40%	–	–
CC(C)C(=O)NCc1cc(Cl)cc(NC(=O)C2C(c3cc(Cl)cc(Cl)c3)C2(Cl)Cl)c1 (stereo not shown) [Compound 125]	≤ 40%	≤ 40%	≤ 40%	≤ 40%	–	–
O=C(NCc1ccc(Cl)c(NC(=O)C2C(c3cc(Cl)cc(Cl)c3)C2(Cl)Cl)c1)C1CC1 (stereo not shown) [Compound 137]	≤ 40%	≤ 40%	–	–	–	–
CCC(=O)NCc1cc(NC(=O)C2C(c3cc(Cl)cc(Cl)c3)C2(Cl)Cl)ccc1Cl (stereo not shown) [Compound 147]	≤ 40%	–	–	–	–	–
O=C(NCc1cc(NC(=O)C2C(c3cc(Cl)cc(Cl)c3)C2(Cl)Cl)ccc1Cl)C1CC1 (stereo not shown) [Compound 148]	≤ 40%	–	–	–	–	–
CCC(=O)NCc1cc(NC(=O)C2C(c3cc(Cl)cc(Cl)c3)C2(Cl)Cl)ccc1F (stereo not shown) [Compound 153]	≤ 40%	–	–	–	≤ 30%	≤ 30%
O=C(NCc1c(F)ccc(NC(=O)C2C(c3ccc(F)c(Cl)c3)C2(Cl)Cl)c1F)C1CC1 (stereo not shown) [Compound 164, 2,2-dichloro-3-(3-chloro-4-fluorophenyl)-N-[3-[[(cyclopropylcarbonyl)amino]methyl]-2,4-difluorophenyl]cyclopropanecarboxamide]	≤ 40%	–	≤ 40%	–	–	–
O=C(CC(F)(F)F)NCc1cc(NC(=O)C2C(c3cc(F)c(Cl)c(F)c3)C2(Cl)Cl)ccc1F (stereo not shown) [Compound 169, 2,2-dichloro-3-(4-chloro-3,5-difluorophenyl)-N-[4-fluoro-3-[[(3,3,3-trifluoro-1-oxopropyl)amino]methyl]phenyl]cyclopropanecarboxamide]	–	–	≤ 40%	–	≤ 30%	≤ 30%
O=C(CC(F)(F)F)NCc1c(F)ccc(NC(=O)C2C(c3ccc(F)c(Cl)c3)C2(Cl)Cl)c1F (stereo not shown) [Compound 170, 2,2-dichloro-3-(3-chloro-4-fluorophenyl)-N-[2,4-difluoro-3-[[(3,3,3-trifluoro-1-oxopropyl)amino]methyl]phenyl]cyclopropanecarboxamide]	–	–	≤ 40%	–	–	–
O=C(CC(F)(F)F)NCc1cc(NC(=O)C2C(c3ccc(F)c(Cl)c3)C2(Cl)Cl)ccc1F (stereo not shown) [Compound 219, 2,2-dichloro-3-(3-chloro-4-fluorophenyl)-N-[4-fluoro-3-[[(3,3,3-trifluoro-1-oxopropyl)amino]methyl]phenyl]cyclopropanecarboxamide]	–	–	–	–	–	≤ 30%
